# Measurements published in PubChem BioAssay AID1347423 (Functional Genomics Laboratory (NCATS/FGL), 2020).
# The campaign covered roughly 52,000 sequences. About 210 (0.4%) were called active.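 Rule for the calls: active = gene whose silencing raises cell survival under the drug, median off-target-corrected z-score across its silencing RNAs 2 or more; inactive = the rest.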 Some of the results follow.
# Assay: Resistance to Poly (ADP-Ribose) Polymerase inhibitor: Gene Identification via Genome-wide siRNA Screen
# Conditions: mouse BRCA2 R2336H ES cells, olaparib, CellTiter-Glo viability; active compounds read high
# How it was run: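 Genome-wide siRNA screen (3 siRNAs/gene, 20 nM) in mouse ES cells carrying hypomorphic BRCA2 R2336H; olaparib 500 nM added 48 h post-transfection, CellTiter-Glo viability 72 h later. Normalized to plate-median negative control; MAD z-scores, gene median, seed-adjusted.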
row,Sequence,z-score
1,GGAAGACCUAAACAACGGCTT against Dusp10,inactive: -0.149
2,AAUCCAAGGGCCGGCCUCATT against LOC328779,inactive: 0.26
3,GCUCUCACAGUUGCAUUCGTT against C330018J07Rik,inactive: -0.366
4,GGAGAAAAAGAGAUAAGGUTT against 2900026H06Rik,inactive: -0.997
5,GGCUAACAUAUGAAUCACUTT against Sec5l1,inactive: -1.62
6,CGUUCUCGUUCUGUUUAUUTT against Ctps2,inactive: 0.545
7,GGUGUUUGAAUGGAAGGACTT against Idua,inactive: -1.37
8,GGAUUCUCAUCUGUCAUAATT against Slc26a3,inactive: -0.344
9,CGCUAACUGGAAAGAAACUTT against Dusp19,inactive: -1.06
10,GGAAUUGGAUUCAAGUAUGTT against 1200002M06Rik,inactive: 0.973
11,CCAAUCUUCUCCUCAAGACTT against Olfr101,inactive: -0.345
12,GCUGCUGCUAUAUAUUGAATT against Wsb1,inactive: 0.776
13,GCCAUAACCUACAUUGUCATT against Loxhd1,inactive: -0.98
14,GCAUGCAGUAAUUGAAAUCTT against Mdc1,inactive: -2.1
15,GCAAGGAGACCGAUAUCAATT against Huwe1,inactive: -0.467
16,GGAAGAAAUGAUAUUCUCATT against Nek11,inactive: 0.885
17,GCGUGACACUAACAAAAAGTT against 4933429F08Rik,inactive: 1.06
18,GGUGACCUCACAUUUGACUTT against Dpagt1,inactive: 1.11
19,GGUUGCUCGGUUAGACUGUTT against Ipo11,inactive: -1.14
20,GGUGCAACAAUAUGAGACATT against Prom2,inactive: 0.373
21,GGAUAAGGGAAUCACUAUCTT against D10Bur2e,inactive: -0.425
22,GGGCAGGGACAUUAGUCAUTT against Zfp106,inactive: -1.62
23,CCAAACUUAAGCCUAUUCUTT against Mme,inactive: -0.138
24,CGAUAAUUGGCUAAACAGATT against Hook3,inactive: 0.185
25,GCUAAUGACUUCUUCAGACTT against Slc25a22,inactive: 1.23
26,GGCAUCAAUAAUGGAAUCATT against Sbsn,inactive: -0.399
27,CCAGCACGCUGAAGUCUGATT against Adam19,inactive: -1.2
28,GGAUGACCAAUCAAUCAGGTT against Mylk,inactive: 0.267
29,GGAGUGAUGUGCAAUACUUTT against Pgam1,inactive: -1.21
